Assay [1] relates to Candida albicans. Briefly: Antimicrobial activity against Candida albicans 3471 at 128 ug/disc at 37 degC after 24 to 72 hrs by agar-well diffusion assay. It is filed as functional. A digest of the protocol:
(§1)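 Potato dextrose agar base plates overlaid with seeded agar cooled to 40 °C and inoculated with spores from 10-day cultures, final 1 × 10⁶ spores/mL. Compounds dissolved in DMSO at 128 µg/mL and applied on 6 mm filter-paper discs placed on chilled seeded medium. Nystatin positive control, DMSO negative control. Incubation 24–72 h at 37 °C. Inhibition zone diameter read by vernier caliper.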
A general note: Agar diffusion results depend on both activity and mobility in agar.

Assay [2] concerns Aspergillus niger. Briefly: Antimicrobial activity against Aspergillus niger 545 at 128 ug/disc at 37 degC after 24 to 72 hrs by agar-well diffusion assay. It is filed as functional. A digest of the protocol:
as §1

With NYSTATIN, the inhibition zone (IZ) in assay [1] worked out at 22 mm; in assay [2], 20.3 mm.

The values are drawn from ChEMBL document CHEMBL2021913, “Synthesis and biological evaluation of some novel thiazole substituted benzotriazole derivatives” (2012).
